Data from article PMC8760648.
No constants are given. Whether binding was seen depends on the method and setting. Binding seen in cells or lysates may run through a third protein. Some results given as binding are weak or reduced against the parent protein; the word gives no strength.

Protein sequences, listed by entry. Tags and fused reporters are not part of them.
UniProt Q9UKV8: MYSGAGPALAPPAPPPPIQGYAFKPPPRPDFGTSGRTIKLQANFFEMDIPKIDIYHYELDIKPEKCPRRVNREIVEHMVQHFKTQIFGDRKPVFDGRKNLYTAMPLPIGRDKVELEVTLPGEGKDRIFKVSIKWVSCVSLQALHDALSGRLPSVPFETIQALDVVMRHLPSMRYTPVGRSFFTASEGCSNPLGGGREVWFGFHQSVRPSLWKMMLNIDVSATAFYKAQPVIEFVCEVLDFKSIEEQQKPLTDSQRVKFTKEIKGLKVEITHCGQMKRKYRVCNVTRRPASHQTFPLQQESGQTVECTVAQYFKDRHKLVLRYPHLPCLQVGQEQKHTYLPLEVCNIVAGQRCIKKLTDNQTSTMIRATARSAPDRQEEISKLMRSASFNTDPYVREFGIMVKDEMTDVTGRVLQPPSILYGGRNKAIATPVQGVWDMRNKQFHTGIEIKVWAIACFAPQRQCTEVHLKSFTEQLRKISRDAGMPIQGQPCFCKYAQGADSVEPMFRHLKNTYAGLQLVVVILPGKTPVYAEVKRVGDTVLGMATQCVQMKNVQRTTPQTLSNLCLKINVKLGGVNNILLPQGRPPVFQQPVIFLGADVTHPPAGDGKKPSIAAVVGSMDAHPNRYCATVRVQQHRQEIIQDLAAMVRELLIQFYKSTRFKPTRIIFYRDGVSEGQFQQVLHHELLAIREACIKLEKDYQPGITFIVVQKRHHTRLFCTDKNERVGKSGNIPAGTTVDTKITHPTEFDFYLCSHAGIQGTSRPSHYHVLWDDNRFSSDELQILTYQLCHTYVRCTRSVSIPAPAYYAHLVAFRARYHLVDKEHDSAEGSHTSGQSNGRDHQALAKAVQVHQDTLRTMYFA

Target: Argonaute 2 (Ago2) (human (endogenous in glioma cells)) (UniProt Q9UKV8)
Assay: co-IP; IP with either IgG (control), AGO2, SART3 or PRPF8 antibodies from glioma cells, followed by Western blotting; endogenous proteins

B1: SART3, spliceosome-associated factor 3 (protein, UniProt Q15020 1-963)
chain: MATAAETSASEPEAESKAGPKADGEEDEVKAARTRRKVLSRAVAAATYKTMGPAWDQQEEGVSESDGDEYAMASSAESSPGEYEWEYDEEEEKNQLEIERLEEQLSINVYDYNCHVDLIRLLRLEGELTKVRMARQKMSEIFPLTEELWLEWLHDEISMAQDGLDREHVYDLFEKAVKDYICPNIWLEYGQYSVGGIGQKGGLEKVRSVFERALSSVGLHMTKGLALWEAYREFESAIVEAARLEKVHSLFRRQLAIPLYDMEATFAEYEEWSEDPIPESVIQNYNKALQQLEKYKPYEEALLQAEAPRLAEYQAYIDFEMKIGDPARIQLIFERALVENCLVPDLWIRYSQYLDRQLKVKDLVLSVHNRAIRNCPWTVALWSRYLLAMERHGVDHQVISVTFEKALNAGFIQATDYVEIWQAYLDYLRRRVDFKQDSSKELEELRAAFTRALEYLKQEVEERFNESGDPSCVIMQNWARIEARLCNNMQKARELWDSIMTRGNAKYANMWLEYYNLERAHGDTQHCRKALHRAVQCTSDYPEHVCEVLLTMERTEGSLEDWDIAVQKTETRLARVNEQRMKAAEKEAALVQQEEEKAEQRKRARAEKKALKKKKKIRGPEKRGADEDDEKEWGDDEEEQPSKRRRVENSIPAAGETQNVEVAAGPAGKCAAVDVEPPSKQKEKAASLKRDMPKVLHDSSKDSITVFVSNLPYSMQEPDTKLRPLFEACGEVVQIRPIFSNRGDFRGYCYVEFKEEKSALQALEMDRKSVEGRPMFVSPCVDKSKNPDFKVFRYSTSLEKHKLFISGLPFSCTKEELEEICKAHGTVKDLRLVTNRAGKPKGLAYVEYENESQASQAVMKMDGMTIKENIIKVAISNPPQRKVPEKPETRKAPGGPMLLPQTYGARGKGRTQLSLLPRALQRPSAAAPQAENGPAAAPAVAAPAATEAPKMSNADFAKLFLRK
**Q.** Which binding does the source give for B1 here?
**A.** binds
